Experimental data taken from patent US8017401B2, “Method for determining redox activity and screening compounds based on redox activity” (State of Oregon acting by and through the State Board of …, priority 2005, dated 2011).
At least one compound was matched to its structure with a doubt left.

Columns and labels:
[1] = Redox activity by reaction with photo-excited dye under aerobic conditions (probe reduction at 470 nm and dye photo-bleaching); format: physicochemical
[2] = Redox activity of activators and inhibitors of membrane-bound transport proteins (overview statement); format: physicochemical; conditions: activators and inhibitors of the sarcoplasmic reticulum calcium release channel; no reference given

CC/C=C\C/C=C\C/C=C\C/C=C\C/C=C\C/C=C\CCC(=O)O [docosahexaenoic acid]
rate of methylene blue bleaching (decreasing absorbance at 633 nm) ([1]; 10 μM methylene blue, 80% dimethyl sulfoxide / 20% 1 mM Tris-HCl, pH 7.4, docosahexaenoic acid 40, 400, 800 μM vs zero): increased | redox activity (electron donor or electron acceptor) ([1]; conclusion from the photo-excited dye assay of the respective example): electron donor | redox activity (electron donor or electron acceptor) [2]: electron donors
